# PubChem BioAssay AID1259405 | NCATS, 2018
# Aim: 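Knock-downs that lift recombinant protein yield in hamster ovary cells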 (primary screen)
# System: Chinese hamster CHO-K1 ovary cells with stable secreted eGFP expression
# Reagent: single siRNA against mouse genes, 0.8 pmol siRNA per well (2 µl of 400 nM stock)
# Duration: 3 days
# Measured: 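Percent of the per-plate non-targeting control median for intracellular GFP per well by laser scanning cytometry and for cell viability by ATP luminescence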
# Direction: GFP, % of control: higher = more GFP per well, higher productivity; viability (ATP), % of control: higher = more viable cells (more ATP)
# Call rule: 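a knock-down is called active if GFP reaches 120% or more of non-targeting control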
# Here is a random part of about 50,000 deposited reagents. About 4,000 of them (8%) count as active. 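Mouse siRNA library applied to hamster cells; one well for each siRNA.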 Reagents against one gene are numbered here.
target,siRNA no.,"GFP, % of control","viability (ATP), % of control",Call
Ccdc90b (GeneID 66365),1,74.8,78.6,inactive
Ccdc90b (GeneID 66365),2,80.9,112,inactive
Ccdc90b (GeneID 66365),3,60.7,76,inactive
Dbil5 (GeneID 13168),1,105,92.3,inactive
Dbil5 (GeneID 13168),2,83.8,72.6,inactive
Dbil5 (GeneID 13168),3,75.6,51.6,inactive
Zdhhc18 (GeneID 503610),1,72.3,78.6,inactive
Zdhhc18 (GeneID 503610),2,57.6,43.1,inactive
Zdhhc18 (GeneID 503610),3,59.5,69.1,inactive
Rbbp9 (GeneID 26450),1,110,72.6,inactive
Rbbp9 (GeneID 26450),2,94.8,80.1,inactive
Rbbp9 (GeneID 26450),3,96.1,80.2,inactive
Tmem191 (GeneID 224019),1,67.7,54.5,inactive
Tmem191 (GeneID 224019),2,68.3,66.9,inactive
Tmem191 (GeneID 224019),3,55.8,64.4,inactive
Rhpn1 (GeneID 14787),1,60.7,89.3,inactive
Rhpn1 (GeneID 14787),2,52.9,54.5,inactive
Rhpn1 (GeneID 14787),3,64.1,74.6,inactive
Pole2 (GeneID 18974),1,133,92.1,active
Pole2 (GeneID 18974),2,68.6,71.2,inactive
Or6n1 (GeneID 258717),1,34.9,45.2,inactive
Or6n1 (GeneID 258717),2,86.9,85.1,inactive
Or6n1 (GeneID 258717),3,82.7,80.6,inactive
Mybph (GeneID 53311),1,13.2,45.5,inactive
Mybph (GeneID 53311),2,75.4,74.2,inactive
Art2b (GeneID 11872),1,74.5,76.2,inactive
Art2b (GeneID 11872),2,73.7,85.5,inactive
Art2b (GeneID 11872),3,54.3,57.4,inactive
Stk24 (GeneID 223255),1,216,141,active
Stk24 (GeneID 223255),2,67.8,94.1,inactive
Stk24 (GeneID 223255),3,109,110,inactive
Supv3l1 (GeneID 338359),1,82.8,88.4,inactive
Supv3l1 (GeneID 338359),2,72.9,61.1,inactive
Supv3l1 (GeneID 338359),3,94.1,83,inactive
Tmem128 (GeneID 66309),1,60.3,96.5,inactive
Tmem128 (GeneID 66309),2,56.8,74.5,inactive
Tmem128 (GeneID 66309),3,68.6,69.3,inactive
Dnajc12 (GeneID 30045),1,55.5,27.2,inactive
Dnajc12 (GeneID 30045),2,122,78.8,active
Dnajc12 (GeneID 30045),3,71.1,114,inactive
Fcrl1 (GeneID 229499),1,67.5,68.8,inactive
Fcrl1 (GeneID 229499),2,49.2,69.3,inactive
Fcrl1 (GeneID 229499),3,88,69.5,inactive
Sh2b2 (GeneID 23921),1,167,83.3,active
Sh2b2 (GeneID 23921),2,80.6,77.9,inactive
Sh2b2 (GeneID 23921),3,64,47.8,inactive
Tnmd (GeneID 64103),1,67.9,68.1,inactive
Tnmd (GeneID 64103),2,80.1,74.1,inactive
Tnmd (GeneID 64103),3,48.3,81.8,inactive
Prkch (GeneID 18755),1,91.9,82.3,inactive
Prkch (GeneID 18755),2,48.2,56.5,inactive
Prkch (GeneID 18755),3,80.7,66.9,inactive
Trmt5 (GeneID 76357),1,108,88.1,inactive
Trmt5 (GeneID 76357),2,110,74.9,inactive
Trmt5 (GeneID 76357),3,89.7,64.1,inactive
Pspc1 (GeneID 66645),1,29.4,51.1,inactive
Pspc1 (GeneID 66645),2,144,64.4,active
Pspc1 (GeneID 66645),3,148,117,active
Setd3 (GeneID 52690),1,103,84,inactive
Setd3 (GeneID 52690),2,135,82.2,active
Setd3 (GeneID 52690),3,109,119,inactive
Clip2 (GeneID 269713),1,47.3,32.3,inactive
Clip2 (GeneID 269713),2,89.6,85,inactive
Clip2 (GeneID 269713),3,66.7,66.1,inactive
Phkb (GeneID 102093),1,81.2,68.2,inactive
Phkb (GeneID 102093),2,119,96.8,inactive
Slc66a3 (GeneID 217430),1,64,76.7,inactive
Slc66a3 (GeneID 217430),2,106,54.9,inactive
Slc66a3 (GeneID 217430),3,122,61.2,active
Shroom2 (GeneID 110380),1,100,78.6,inactive
Shroom2 (GeneID 110380),2,51.4,69.4,inactive
Acsl1 (GeneID 14081),1,64.8,61.4,inactive
Acsl1 (GeneID 14081),2,124,81.6,active
Acsl1 (GeneID 14081),3,108,118,inactive
Gatc (GeneID 384281),1,85.1,96.3,inactive
Gatc (GeneID 384281),2,81.8,47.2,inactive
Gatc (GeneID 384281),3,56.7,77,inactive
Map3k2 (GeneID 26405),1,96.6,93.9,inactive
Limk1 (GeneID 16885),1,78.7,60.3,inactive
Fxyd7 (GeneID 57780),1,62.2,83.6,inactive
Fxyd7 (GeneID 57780),2,60.9,42.2,inactive
Fxyd7 (GeneID 57780),3,69.2,61.8,inactive
Nherf4 (GeneID 170761),1,46.6,55.2,inactive
Nherf4 (GeneID 170761),2,142,45.1,active
Nherf4 (GeneID 170761),3,53.8,128,inactive
Ppm1g (GeneID 14208),1,132,77.5,active
Ppm1g (GeneID 14208),2,82.6,51.6,inactive
Ppm1g (GeneID 14208),3,44.4,43.2,inactive
Cyp26b1 (GeneID 232174),1,58.5,80.1,inactive
Cyp26b1 (GeneID 232174),2,92.8,79.2,inactive
Cyp26b1 (GeneID 232174),3,82.3,86.4,inactive
Pla1a (GeneID 85031),1,77.5,64.9,inactive
Pla1a (GeneID 85031),2,96.3,70,inactive
Pla1a (GeneID 85031),3,43.1,36.8,inactive
Map1lc3b (GeneID 67443),1,104,91,inactive
Map1lc3b (GeneID 67443),2,81.6,85,inactive
Asap2 (GeneID 211914),1,111,115,inactive
Asap2 (GeneID 211914),2,78.8,81.9,inactive
Asap2 (GeneID 211914),3,63.2,84.4,inactive
Atrn (GeneID 11990),1,72.9,70.1,inactive
Atrn (GeneID 11990),2,74.3,68.4,inactive
Atrn (GeneID 11990),3,45.1,48.7,inactive
Ostf1 (GeneID 20409),1,83.4,61.9,inactive
Ostf1 (GeneID 20409),2,66.8,62.9,inactive
Ostf1 (GeneID 20409),3,59.6,124,inactive
Sh3tc1 (GeneID 231147),1,39.9,60.3,inactive
Sh3tc1 (GeneID 231147),2,53.2,37.2,inactive
Sh3tc1 (GeneID 231147),3,71.7,80.6,inactive

9 entries from above, sorted by “GFP, % of control”, highest first:
target,siRNA no.,"GFP, % of control","viability (ATP), % of control",Call
Pspc1 (GeneID 66645),3,148,117,active
Pspc1 (GeneID 66645),2,144,64.4,active
Setd3 (GeneID 52690),2,135,82.2,active
Trmt5 (GeneID 76357),2,110,74.9,inactive
Setd3 (GeneID 52690),3,109,119,inactive
Setd3 (GeneID 52690),1,103,84,inactive
Trmt5 (GeneID 76357),3,89.7,64.1,inactive
Clip2 (GeneID 269713),1,47.3,32.3,inactive
Pspc1 (GeneID 66645),1,29.4,51.1,inactive
